Laboratory results taken from PMC8541685.
These are yes or no findings as the source states them, for the method shown. Binding seen in cells or lysates may run through a third protein. A result given as binding can be weak or reduced; the word gives no strength.

The chains behind the UniProt entries cited, without tags or fusion partners. Where a name states a change or a piece, a line headed by the entry shows the natural chain unless it says otherwise.
UniProt P67775: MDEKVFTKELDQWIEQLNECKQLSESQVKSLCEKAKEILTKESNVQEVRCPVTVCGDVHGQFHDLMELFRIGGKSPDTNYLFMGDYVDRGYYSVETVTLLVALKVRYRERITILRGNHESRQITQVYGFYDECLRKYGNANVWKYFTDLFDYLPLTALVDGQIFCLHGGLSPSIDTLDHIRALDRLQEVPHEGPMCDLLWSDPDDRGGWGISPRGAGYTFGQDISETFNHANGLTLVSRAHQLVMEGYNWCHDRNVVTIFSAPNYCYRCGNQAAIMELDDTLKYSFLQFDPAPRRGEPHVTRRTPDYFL
UniProt Q01105: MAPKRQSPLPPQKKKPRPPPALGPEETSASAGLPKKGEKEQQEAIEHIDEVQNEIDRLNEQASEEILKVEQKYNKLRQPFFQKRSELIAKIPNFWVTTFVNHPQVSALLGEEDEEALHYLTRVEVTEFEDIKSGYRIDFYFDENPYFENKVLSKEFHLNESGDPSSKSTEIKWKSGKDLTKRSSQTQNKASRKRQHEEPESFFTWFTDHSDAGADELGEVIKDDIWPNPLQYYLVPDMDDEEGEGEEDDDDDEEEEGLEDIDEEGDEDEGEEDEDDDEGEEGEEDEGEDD

Target: serine/threonine phosphatase PP2A (human (endogenous in MDA-MB231)) (UniProt P67775)
Assay: co-IP; MDA-MB231 lysate (500 ug; 50 mM Tris pH 8, 1% NP40, 137 mM NaCl) immunoprecipitated with anti-PP2A antibody overnight at 4 C, protein A/G Sepharose, washed with TBST; blot for SET

binding: binds
Substance: oncoprotein SET (from UniProt Q01105 1-290)
